Measurements reported in PubChem BioAssay AID652243 (Drosophila RNAi Screening Center, 2013).
In all, the deposit lists about 24,000 reagents; below is a random part of those with a known target gene and a result. Of all reagents, 246 (1%) are marked active. 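Plates not normalised; calls are printed but the firefly/Renilla ratio behind them is not deposited; fold cut for lowering reported inconsistently.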 Raw values vary from plate to plate and are shown uncorrected. Entries without a mark were called inactive. Reagents against one gene are numbered here. Reagent sequences are not shown. Not given: the amount of reagent.

Screen: 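Knock-downs that decrease or increase androgen receptor reporter signal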 (primary screen)
Cells: Drosophila S2R+ cells
Knock-down reagent: long dsRNA against Drosophila genes
Timing: 72 h (48 h, then 24 h hormone)
Treatment: synthetic androgen R1881 at 10 nM for 24 h
Measured: 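Firefly light from an androgen-responsive reporter and Renilla control light per well, raw and unnormalised, for each of two replicates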
Scale: firefly reporter light: higher = more light from androgen-responsive reporter; Renilla control light: higher = more constitutive control signal (cell number, transfection)
Rule for the call: 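Hit when the log firefly-to-Renilla ratio dropped or increased by a fixed fold versus the mean of GFP or LacZ controls across duplicate plates; lowering cut given as 1.5 and as 3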
Meaning of the calls: active = hit: reporter lowered or raised; inactive = no hit

With FDY, what does the deposit list?
firefly reporter light, replicate 1: 7.33e5; firefly reporter light, replicate 2: 8.30e5; Renilla control light, replicate 1: 1.76e6; Renilla control light, replicate 2: 2.05e6

Which result is listed for lncRNA:CR40465?
firefly reporter light, replicate 1: 7.99e5; firefly reporter light, replicate 2: 8.94e5; Renilla control light, replicate 1: 1.36e6; Renilla control light, replicate 2: 1.76e6

For sphinx2 #1, what does the deposit list?
firefly reporter light, replicate 1: 5.85e5; firefly reporter light, replicate 2: 5.35e5; Renilla control light, replicate 1: 2.22e6; Renilla control light, replicate 2: 2.47e6

For sphinx2 #2, what does the deposit list?
firefly reporter light, replicate 1: 8.10e5; firefly reporter light, replicate 2: 8.00e5; Renilla control light, replicate 1: 6.02e5; Renilla control light, replicate 2: 7.86e5

With CG14667 #1, how do the results read?
firefly reporter light, replicate 1: 30668; firefly reporter light, replicate 2: 26757; Renilla control light, replicate 1: 1.15e6; Renilla control light, replicate 2: 1.20e6

For CG14667 #2, how do the results read?
firefly reporter light, replicate 1: 7.57e5; firefly reporter light, replicate 2: 1.06e6; Renilla control light, replicate 1: 1.42e6; Renilla control light, replicate 2: 1.87e6

With Obp8a #1, what does the deposit list?
firefly reporter light, replicate 1: 2.82e5; firefly reporter light, replicate 2: 2.83e5; Renilla control light, replicate 1: 2.08e6; Renilla control light, replicate 2: 2.05e6

How did the screen score Obp8a #2?
firefly reporter light, replicate 1: 5.25e5; firefly reporter light, replicate 2: 3.86e5; Renilla control light, replicate 1: 1.26e6; Renilla control light, replicate 2: 1.03e6

For Pex23 #1, what does the deposit list?
firefly reporter light, replicate 1: 48393; firefly reporter light, replicate 2: 92521; Renilla control light, replicate 1: 4.71e5; Renilla control light, replicate 2: 3.99e5

What is on record for Pex23 #2?
firefly reporter light, replicate 1: 1.57e5; firefly reporter light, replicate 2: 1.78e5; Renilla control light, replicate 1: 8.59e5; Renilla control light, replicate 2: 1.69e6

What is on record for Pex23 #3?
firefly reporter light, replicate 1: 5.76e5; firefly reporter light, replicate 2: 8.54e5; Renilla control light, replicate 1: 9.63e5; Renilla control light, replicate 2: 1.66e6

For Gr22b, what was measured?
firefly reporter light, replicate 1: 4.83e5; firefly reporter light, replicate 2: 7.02e5; Renilla control light, replicate 1: 3.64e5; Renilla control light, replicate 2: 3.64e5

How did the screen score Ars2?
firefly reporter light, replicate 1: 1.09e6; firefly reporter light, replicate 2: 1.06e6; Renilla control light, replicate 1: 3.02e6; Renilla control light, replicate 2: 2.95e6

With Jhbp13, what does the deposit list?
firefly reporter light, replicate 1: 2.10e5; firefly reporter light, replicate 2: 2.97e5; Renilla control light, replicate 1: 1.32e6; Renilla control light, replicate 2: 1.72e6

With ppk5, how do the results read?
firefly reporter light, replicate 1: 1.21e5; firefly reporter light, replicate 2: 1.06e5; Renilla control light, replicate 1: 3.66e5; Renilla control light, replicate 2: 3.32e5

For tbc #1, how do the results read?
firefly reporter light, replicate 1: 20872 (active); firefly reporter light, replicate 2: 10874; Renilla control light, replicate 1: 1.59e5; Renilla control light, replicate 2: 89933

What is on record for tbc #2?
firefly reporter light, replicate 1: 6.54e5; firefly reporter light, replicate 2: 9.59e5; Renilla control light, replicate 1: 9.82e5; Renilla control light, replicate 2: 1.39e6

Which result is listed for tbc #3?
firefly reporter light, replicate 1: 3.64e5; firefly reporter light, replicate 2: 4.29e5; Renilla control light, replicate 1: 1.12e6; Renilla control light, replicate 2: 9.62e5

What is on record for CG15909?
firefly reporter light, replicate 1: 4.44e5; firefly reporter light, replicate 2: 4.43e5; Renilla control light, replicate 1: 1.35e6; Renilla control light, replicate 2: 1.71e6

For Ag5r #1, what does the deposit list?
firefly reporter light, replicate 1: 1.10e5; firefly reporter light, replicate 2: 1.09e5; Renilla control light, replicate 1: 8.80e5; Renilla control light, replicate 2: 8.52e5

What is on record for Ag5r #2?
firefly reporter light, replicate 1: 4.10e5; firefly reporter light, replicate 2: 3.45e5; Renilla control light, replicate 1: 1.16e6; Renilla control light, replicate 2: 9.43e5
